Assay results: the supplement of paper PMC10849652
This is one part of the list. Residues, ends and D or L forms follow the SMILES beside them. *: point of attachment. Cbz = O=C(OCc1ccccc1)*

The chains behind the UniProt entries cited, without tags or fusion partners. Where a name states a change or a piece, a line headed by the entry shows the natural chain unless it says otherwise.
UniProt Q8WZA9: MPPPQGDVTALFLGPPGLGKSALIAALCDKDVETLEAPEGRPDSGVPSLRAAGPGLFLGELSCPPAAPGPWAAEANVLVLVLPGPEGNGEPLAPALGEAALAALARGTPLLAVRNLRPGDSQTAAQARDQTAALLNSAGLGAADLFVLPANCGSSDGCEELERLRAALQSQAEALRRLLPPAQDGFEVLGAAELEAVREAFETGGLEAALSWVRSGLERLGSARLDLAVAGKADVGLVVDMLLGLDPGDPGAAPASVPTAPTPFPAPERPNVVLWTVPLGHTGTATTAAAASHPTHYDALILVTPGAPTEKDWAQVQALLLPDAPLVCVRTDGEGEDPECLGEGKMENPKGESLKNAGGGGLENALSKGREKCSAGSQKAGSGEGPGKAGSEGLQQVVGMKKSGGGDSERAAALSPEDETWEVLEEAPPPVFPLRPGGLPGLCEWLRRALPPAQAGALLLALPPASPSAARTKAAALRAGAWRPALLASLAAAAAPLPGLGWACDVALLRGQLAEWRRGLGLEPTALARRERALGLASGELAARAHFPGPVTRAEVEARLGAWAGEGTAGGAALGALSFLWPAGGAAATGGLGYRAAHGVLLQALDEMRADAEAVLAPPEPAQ
UniProt Q9H1K1: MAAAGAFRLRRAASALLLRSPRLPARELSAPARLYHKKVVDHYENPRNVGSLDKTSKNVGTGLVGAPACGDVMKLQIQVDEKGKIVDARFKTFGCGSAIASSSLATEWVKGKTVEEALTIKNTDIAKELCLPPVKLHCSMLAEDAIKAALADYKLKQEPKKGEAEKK
UniProt P19823: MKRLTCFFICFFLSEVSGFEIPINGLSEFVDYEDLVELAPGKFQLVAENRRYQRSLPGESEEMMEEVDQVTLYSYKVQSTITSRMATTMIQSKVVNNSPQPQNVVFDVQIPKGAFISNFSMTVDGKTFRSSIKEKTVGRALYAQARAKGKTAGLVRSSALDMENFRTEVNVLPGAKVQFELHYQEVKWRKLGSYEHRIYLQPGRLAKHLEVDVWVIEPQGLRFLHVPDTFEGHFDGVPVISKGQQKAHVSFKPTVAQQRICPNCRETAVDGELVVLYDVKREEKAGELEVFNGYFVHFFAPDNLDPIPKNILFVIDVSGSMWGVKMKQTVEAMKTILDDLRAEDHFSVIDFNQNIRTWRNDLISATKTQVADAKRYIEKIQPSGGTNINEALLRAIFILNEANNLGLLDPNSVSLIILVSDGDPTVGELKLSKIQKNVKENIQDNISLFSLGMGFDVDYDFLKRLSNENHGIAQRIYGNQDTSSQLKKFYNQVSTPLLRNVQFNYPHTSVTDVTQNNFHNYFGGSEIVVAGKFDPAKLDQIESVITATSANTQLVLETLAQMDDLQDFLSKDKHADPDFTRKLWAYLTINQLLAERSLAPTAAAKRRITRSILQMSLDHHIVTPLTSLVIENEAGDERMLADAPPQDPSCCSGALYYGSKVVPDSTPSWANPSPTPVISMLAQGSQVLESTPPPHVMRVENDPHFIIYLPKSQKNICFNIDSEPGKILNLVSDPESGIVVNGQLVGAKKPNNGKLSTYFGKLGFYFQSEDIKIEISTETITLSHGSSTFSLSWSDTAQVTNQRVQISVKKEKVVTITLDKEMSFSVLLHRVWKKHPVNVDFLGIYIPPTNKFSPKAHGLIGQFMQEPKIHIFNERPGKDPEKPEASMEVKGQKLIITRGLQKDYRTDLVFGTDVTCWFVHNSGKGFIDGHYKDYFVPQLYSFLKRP
UniProt P80217: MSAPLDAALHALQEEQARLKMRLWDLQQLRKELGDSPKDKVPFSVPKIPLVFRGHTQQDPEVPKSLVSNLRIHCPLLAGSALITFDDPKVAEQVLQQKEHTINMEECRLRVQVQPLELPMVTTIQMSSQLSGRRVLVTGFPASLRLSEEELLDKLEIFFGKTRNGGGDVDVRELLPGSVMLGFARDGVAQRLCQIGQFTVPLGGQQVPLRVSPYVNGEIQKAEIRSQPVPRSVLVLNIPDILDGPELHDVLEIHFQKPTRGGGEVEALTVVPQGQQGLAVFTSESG
UniProt Q9NV88, whole entry, looked up: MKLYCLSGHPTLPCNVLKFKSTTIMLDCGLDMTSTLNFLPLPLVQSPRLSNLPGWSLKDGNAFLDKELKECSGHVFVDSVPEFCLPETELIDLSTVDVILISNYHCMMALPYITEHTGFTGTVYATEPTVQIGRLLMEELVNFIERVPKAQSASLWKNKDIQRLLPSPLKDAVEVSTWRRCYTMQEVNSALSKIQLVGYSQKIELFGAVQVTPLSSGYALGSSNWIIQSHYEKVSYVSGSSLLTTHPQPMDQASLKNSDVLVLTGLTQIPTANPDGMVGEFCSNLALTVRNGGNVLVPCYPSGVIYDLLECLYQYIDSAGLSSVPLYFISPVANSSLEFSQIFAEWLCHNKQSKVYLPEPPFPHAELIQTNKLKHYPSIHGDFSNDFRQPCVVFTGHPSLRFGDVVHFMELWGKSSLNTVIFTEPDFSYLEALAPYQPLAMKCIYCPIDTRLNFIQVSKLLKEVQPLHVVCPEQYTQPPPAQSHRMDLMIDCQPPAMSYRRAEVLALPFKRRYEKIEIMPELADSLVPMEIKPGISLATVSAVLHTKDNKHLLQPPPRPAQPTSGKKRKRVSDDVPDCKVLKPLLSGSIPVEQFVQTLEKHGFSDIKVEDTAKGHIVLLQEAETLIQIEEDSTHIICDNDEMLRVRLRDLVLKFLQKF
UniProt Q8TB96: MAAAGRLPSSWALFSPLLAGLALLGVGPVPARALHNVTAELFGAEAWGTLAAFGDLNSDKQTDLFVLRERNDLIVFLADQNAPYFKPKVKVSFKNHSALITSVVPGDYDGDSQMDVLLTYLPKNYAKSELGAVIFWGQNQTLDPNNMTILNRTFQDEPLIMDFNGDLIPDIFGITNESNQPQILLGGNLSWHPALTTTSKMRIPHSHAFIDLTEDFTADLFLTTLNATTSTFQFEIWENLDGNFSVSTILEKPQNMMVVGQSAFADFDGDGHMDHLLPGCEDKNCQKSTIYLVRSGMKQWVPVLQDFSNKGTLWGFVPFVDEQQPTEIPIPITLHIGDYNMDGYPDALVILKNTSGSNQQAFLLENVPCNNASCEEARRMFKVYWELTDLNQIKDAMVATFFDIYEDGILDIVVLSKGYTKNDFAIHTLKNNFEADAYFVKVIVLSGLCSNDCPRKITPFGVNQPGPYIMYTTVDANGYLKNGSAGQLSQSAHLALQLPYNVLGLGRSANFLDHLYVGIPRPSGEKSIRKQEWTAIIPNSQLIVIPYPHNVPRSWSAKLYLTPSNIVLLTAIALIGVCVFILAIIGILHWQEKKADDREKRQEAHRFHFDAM
UniProt P18084: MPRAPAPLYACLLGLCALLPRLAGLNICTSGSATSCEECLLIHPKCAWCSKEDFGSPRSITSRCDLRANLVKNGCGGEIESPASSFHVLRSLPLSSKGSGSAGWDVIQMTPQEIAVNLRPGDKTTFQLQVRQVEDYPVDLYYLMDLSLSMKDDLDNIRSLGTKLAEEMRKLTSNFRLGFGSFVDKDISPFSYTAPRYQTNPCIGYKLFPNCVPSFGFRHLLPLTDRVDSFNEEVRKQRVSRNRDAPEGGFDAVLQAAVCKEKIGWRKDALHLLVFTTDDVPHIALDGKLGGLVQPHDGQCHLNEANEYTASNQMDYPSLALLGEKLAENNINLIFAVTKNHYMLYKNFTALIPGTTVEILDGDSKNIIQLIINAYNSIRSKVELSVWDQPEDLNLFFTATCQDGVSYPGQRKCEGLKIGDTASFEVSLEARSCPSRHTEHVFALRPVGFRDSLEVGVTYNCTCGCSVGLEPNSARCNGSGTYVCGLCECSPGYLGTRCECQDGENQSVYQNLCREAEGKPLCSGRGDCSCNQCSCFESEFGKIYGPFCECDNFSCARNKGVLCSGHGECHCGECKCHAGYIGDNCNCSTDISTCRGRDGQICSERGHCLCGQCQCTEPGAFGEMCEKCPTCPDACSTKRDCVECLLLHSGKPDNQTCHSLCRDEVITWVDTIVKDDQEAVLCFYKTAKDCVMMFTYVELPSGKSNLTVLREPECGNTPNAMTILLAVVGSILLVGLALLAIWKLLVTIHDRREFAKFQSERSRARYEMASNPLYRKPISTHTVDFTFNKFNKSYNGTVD
UniProt P23677, whole entry, looked up: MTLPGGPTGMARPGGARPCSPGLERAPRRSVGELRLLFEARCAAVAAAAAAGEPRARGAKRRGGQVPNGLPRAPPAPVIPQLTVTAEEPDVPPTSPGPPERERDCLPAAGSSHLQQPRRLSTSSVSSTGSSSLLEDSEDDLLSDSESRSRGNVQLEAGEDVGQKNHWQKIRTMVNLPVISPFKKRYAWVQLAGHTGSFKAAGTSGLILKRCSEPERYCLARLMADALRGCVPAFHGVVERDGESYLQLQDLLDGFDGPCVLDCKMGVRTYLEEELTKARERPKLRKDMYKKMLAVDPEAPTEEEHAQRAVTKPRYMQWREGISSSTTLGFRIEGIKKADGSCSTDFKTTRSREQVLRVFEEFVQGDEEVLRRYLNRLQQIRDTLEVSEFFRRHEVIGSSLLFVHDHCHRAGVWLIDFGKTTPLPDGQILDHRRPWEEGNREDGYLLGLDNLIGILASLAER
UniProt Q6UWB1, whole entry, looked up: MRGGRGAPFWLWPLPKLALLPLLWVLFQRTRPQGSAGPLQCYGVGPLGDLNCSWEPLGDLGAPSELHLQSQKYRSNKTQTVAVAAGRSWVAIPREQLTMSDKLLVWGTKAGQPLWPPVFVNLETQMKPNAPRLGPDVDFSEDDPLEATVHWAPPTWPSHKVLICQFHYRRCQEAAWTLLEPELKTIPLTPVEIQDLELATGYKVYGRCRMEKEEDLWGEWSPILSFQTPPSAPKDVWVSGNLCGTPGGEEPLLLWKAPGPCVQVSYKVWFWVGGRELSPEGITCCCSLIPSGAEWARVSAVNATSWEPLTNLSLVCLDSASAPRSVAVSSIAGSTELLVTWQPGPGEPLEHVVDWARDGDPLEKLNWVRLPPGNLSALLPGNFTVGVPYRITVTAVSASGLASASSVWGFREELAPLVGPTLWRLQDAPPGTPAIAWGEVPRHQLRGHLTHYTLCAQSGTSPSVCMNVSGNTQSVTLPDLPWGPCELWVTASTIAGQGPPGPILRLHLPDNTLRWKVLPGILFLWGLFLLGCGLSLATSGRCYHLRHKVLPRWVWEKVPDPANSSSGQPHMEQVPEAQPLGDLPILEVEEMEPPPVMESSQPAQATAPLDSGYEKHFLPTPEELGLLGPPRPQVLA
UniProt P78318: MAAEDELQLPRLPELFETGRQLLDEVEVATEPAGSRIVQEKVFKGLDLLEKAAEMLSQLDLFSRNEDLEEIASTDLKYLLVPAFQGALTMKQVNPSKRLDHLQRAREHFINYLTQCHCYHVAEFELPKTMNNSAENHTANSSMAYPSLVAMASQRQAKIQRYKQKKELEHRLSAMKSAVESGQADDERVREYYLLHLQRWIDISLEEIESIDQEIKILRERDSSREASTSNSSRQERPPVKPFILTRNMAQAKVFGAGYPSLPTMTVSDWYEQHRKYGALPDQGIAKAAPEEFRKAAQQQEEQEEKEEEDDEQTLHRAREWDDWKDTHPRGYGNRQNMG
UniProt P05556, whole entry, looked up: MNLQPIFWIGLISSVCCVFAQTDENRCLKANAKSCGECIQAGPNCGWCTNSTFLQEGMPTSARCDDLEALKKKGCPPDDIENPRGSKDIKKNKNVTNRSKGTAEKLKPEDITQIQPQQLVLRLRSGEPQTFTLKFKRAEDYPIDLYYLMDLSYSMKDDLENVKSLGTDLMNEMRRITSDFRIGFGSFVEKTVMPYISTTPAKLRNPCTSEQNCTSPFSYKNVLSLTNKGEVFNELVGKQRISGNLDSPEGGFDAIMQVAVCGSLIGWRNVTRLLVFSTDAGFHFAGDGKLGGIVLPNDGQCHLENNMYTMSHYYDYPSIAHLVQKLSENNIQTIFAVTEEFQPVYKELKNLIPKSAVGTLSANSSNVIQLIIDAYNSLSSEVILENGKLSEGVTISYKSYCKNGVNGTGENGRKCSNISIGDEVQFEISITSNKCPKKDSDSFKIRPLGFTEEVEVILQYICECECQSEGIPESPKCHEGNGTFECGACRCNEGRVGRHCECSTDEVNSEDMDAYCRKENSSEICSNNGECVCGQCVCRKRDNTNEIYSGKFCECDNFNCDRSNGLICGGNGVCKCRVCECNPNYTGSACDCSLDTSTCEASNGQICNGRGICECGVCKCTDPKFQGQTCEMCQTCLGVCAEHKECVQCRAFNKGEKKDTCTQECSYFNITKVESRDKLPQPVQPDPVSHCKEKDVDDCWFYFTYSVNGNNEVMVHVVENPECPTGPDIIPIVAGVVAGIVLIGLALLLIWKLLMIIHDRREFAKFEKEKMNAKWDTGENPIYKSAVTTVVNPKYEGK

How the values were obtained:
Test in all cases: log2 fold change, soluble protein after heating vs DMSO (PISA); higher = thermal stabilisation; K562 cells, 10 uM, 30 min; active = over 0.2 and 3.5 SD of the protein, either way, in both replicates (recomputed)
erlotinib = compound: C#Cc1cccc(Nc2ncnc3cc(OCCOC)c(OCCOC)cc23)c1 [erlotinib]
Method in brief: (§1)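 Thermal stability values are relative to control samples and come from duplicates. They are expressed as log2 fold changes. For measurement, K562 cells (2×10^6 cells/mL) received 10 μM compound for 30 min, and aliquots were heated for 3 min over 48°C-58°C, pooled, and extracted at 4°C in PBS with 0.5% NP-40. Soluble protein, the supernatant after 21,000xg for 90 min, was quantified by TMTpro 16plex LC-MS/MS with equalised channel sums.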

[1] = compound: C/C(=N\NC(=O)C1=CC(=CC=C1)S(=O)(=O)N2CCOCC2)/C3=C(C=CC(=C3)Cl)O
Method in brief: as §1

[2] = compound: C1=CC(=C(C=C1Cl)C2=NC3=NC=CN=C3C(=N2)NC4=CC=NC=C4)F
Method in brief: as §1

[3] = compound: C1=CC(=CC=C1C2=NC3=C(N2)C=C(C=C3)C(=O)N)OC4=CC=C(C=C4)Cl
Method in brief: as §1

[4] = compound: C1=CC2=C(C=CC(=C2)/C=C\3/C(=O)NC(=NCC4=CC=CS4)S3)N=C1
Method in brief: as §1

[5] = compound: C1=CC2=NC=CN=C2C=C1/C=C/3\C(=O)NC(=O)S3
Method in brief: as §1

[6] = compound: C1=CC=C(C=C1)C2=NC(=C(N2)C3=CC=NC=C3)C4=CC(=C(C=C4)Cl)O
Method in brief: as §1

[7] = compound: C1=CC=C2C(=C1)C3=NNC4=CC=CC(=C43)C2=O
Method in brief: as §1

[8] = compound: C1CCN(C1)C(=O)NC2=CC=CC(=C2)NC3=NC=C(C(=N3)NCCC4=CN=CN4)Br
Method in brief: as §1

[9] = compound: C1CN(CCC1(CC2=CC=C(C=C2)Cl)N)C3=NC=NC4=C3C=CN4
Method in brief: as §1

IRAK-1-4 Inhibitor I = compound: C1COCCN1CCN2C3=CC=CC=C3N=C2NC(=O)C4=CC(=CC=C4)[N+](=O)[O-] [IRAK-1-4 Inhibitor I]
Method in brief: as §1

ibrutinib = compound: C=CC(=O)N1CCC[C@@H](n2nc(-c3ccc(Oc4ccccc4)cc3)c3c(N)ncnc32)C1 [ibrutinib]
Method in brief: as §1

[10] = compound: CC(=O)c1cnc2ccc(-c3cc(Cl)c(O)c(Cl)c3)nc2c1N[C@H]1CC[C@H](CN(C)C)CC1
Method in brief: as §1

ralimetinib = compound: CC(C)(C)Cn1c(N)nc2ccc(-c3[nH]c(C(C)(C)C)nc3-c3ccc(F)cc3)nc21 [ralimetinib]
Method in brief: as §1

[11] = compound: CC(C)(O)CC(=O)NCCn1ccc2ncnc(Nc3ccc(Oc4cccc(C(F)(F)F)c4)c(Cl)c3)c21
Method in brief: as §1

[12] = compound: CC(C)C1=C2N=C(C=C(N2N=C1)NCC3=CC=CC=C3)NCCCCCCN
Method in brief: as §1

[13] = compound: CC(C)C[C@@H](C=O)NC(=O)[C@H](CC(C)C)NC(=O)[C@H](CC(C)C)NC(=O)OCc1ccccc1
Method in brief: as §1

pinometostat = compound: CC(C)N(C[C@H]1O[C@@H](n2cnc3c(N)ncnc32)[C@H](O)[C@@H]1O)[C@H]1C[C@@H](CCc2nc3cc(C(C)(C)C)ccc3[nH]2)C1 [pinometostat]
Method in brief: as §1

[14] = compound: CC1=C(C(CC(=O)N1)C2=CC=C(C=C2)C(F)(F)F)C(=O)NC3=C(C=C4C(=C3)C=NN4)F
Method in brief: as §1

[15] = compound: CC1=C(C2=C(C=C1)C(=O)C3=CC=CC=C3N2CCCN)C
Method in brief: as §1

Measured: log2 fold change

IRGQ (UniProt Q8WZA9)
inactive: erlotinib 0.017 | [1] 0.019 | [2] 0.114 | [3] -0.04 | [4] -0.036 | [5] 0.04 | [6] 0.032 | [7] -0.016 | [8] 0.019 | [9] 0.008 | IRAK-1-4 Inhibitor I 0.002 | ibrutinib -0.019 | [10] 0.011 | ralimetinib -0.105 | [11] -0.072 | [12] -0.016 | [13] 0.087 | pinometostat 0.003 | [14] 0.031 | [15] -0.02

ISCU (UniProt Q9H1K1)
inactive: erlotinib -0.024 | [1] -0.078 | [2] 0 | [3] 0.001 | [4] 0.012 | [5] 0.009 | [6] -0.003 | [7] -0.011 | [8] 0.052 | [9] 0.041 | IRAK-1-4 Inhibitor I -0.002 | ibrutinib -0.001 | [10] -0.001 | ralimetinib -0.071 | [11] 0.031 | [12] 0.016 | [13] -0.026 | pinometostat -0.023 | [14] -0.028 | [15] -0.024

ITIH2 (UniProt P19823)
inactive: erlotinib -0.132 | [1] -0.174 | [2] 0.054 | [3] 0.113 | [4] 0.131 | [5] -0.024 | [6] -0.005 | [7] -0.123 | [8] 0.147 | [9] 0.26 | IRAK-1-4 Inhibitor I 0.082 | ibrutinib 0.291 | [10] 0.168 | ralimetinib -0.029 | [11] 0.232 | [12] 0.189 | [13] 0.021 | pinometostat -0.042 | [14] 0.018 | [15] -0.184

IFI35 isoform 2 (UniProt P80217)
inactive: erlotinib 0.023 | [1] 0.031 | [2] 0.059 | [3] -0.012 | [4] -0.002 | [5] 0.009 | [6] 0.047 | [7] -0.006 | [8] -0.033 | [9] 0.041 | IRAK-1-4 Inhibitor I 0.032 | ibrutinib 0.01 | [10] 0.014 | ralimetinib -0.057 | [11] -0.038 | [12] 0.016 | [13] -0.006 | pinometostat -0.069 | [14] -0.023 | [15] 0.025

INTS9 (UniProt Q9NV88)
inactive: erlotinib 0.018 | [1] 0.015 | [2] 0.031 | [3] 0.017 | [4] 0.084 | [5] 0.033 | [6] 0.049 | [7] 0.018 | [8] -0.036 | [9] -0.005 | IRAK-1-4 Inhibitor I 0.007 | ibrutinib 0.007 | [10] -0.04 | ralimetinib -0.026 | [11] 0.002 | [12] -0.008 | [13] 0.016 | pinometostat -0.003 | [14] -0.028 | [15] 0.008

ITFG1 (UniProt Q8TB96)
inactive: erlotinib 0.084 | [1] -0.13 | [2] 0.001 | [3] 0.008 | [4] -0.037 | [5] 0 | [6] 0.039 | [7] 0.063 | [8] -0.052 | [9] -0.037 | IRAK-1-4 Inhibitor I 0.04 | ibrutinib 0.147 | [10] -0.017 | ralimetinib -0.006 | [11] -0.015 | [12] -0.02 | [13] 0.06 | pinometostat 0.007 | [14] -0.079 | [15] -0.197

ITFG2 (UniProt Q969R8)
inactive: erlotinib -0.089 | [1] 0.065 | [2] -0.187 | [3] 0.164 | [4] 0.077 | [5] -0.042 | [6] -0.025 | [7] 0.006 | [8] -0.025 | [9] -0.019 | IRAK-1-4 Inhibitor I 0.015 | ibrutinib 0.127 | [10] -0.033 | ralimetinib -0.061 | [11] -0.062 | [12] -0.103 | [13] 0.011 | pinometostat 0.075 | [14] 0.013 | [15] 0.024

ITGB5 (UniProt P18084)
inactive: erlotinib -0.042 | [1] 0.014 | [2] -0.015 | [3] -0.049 | [4] 0.013 | [5] 0.086 | [6] 0 | [7] 0.007 | [8] 0.016 | [9] 0.087 | IRAK-1-4 Inhibitor I 0.007 | ibrutinib 0.033 | [10] -0.045 | ralimetinib 0 | [11] -0.035 | [12] 0.075 | [13] -0.047 | pinometostat -0.029 | [14] 0.01 | [15] -0.027

ITPKA (UniProt P23677)
inactive: erlotinib 0.086 | [1] 0.039 | [2] -0.191 | [3] -0.052 | [4] 0.157 | [5] -0.343 | [6] -0.075 | [7] 0.065 | [8] -0.066 | [9] -0.144 | IRAK-1-4 Inhibitor I -0.154 | ibrutinib -0.061 | [10] -0.672 | ralimetinib 0.022 | [11] -0.222 | [12] -0.51 | [13] -0.078 | pinometostat -0.022 | [14] -0.182 | [15] -0.015

Retrieved one by one from above, 2 records:
ITFG2 (UniProt Q969R8)
inactive: erlotinib -0.089 | [1] 0.065 | [2] -0.187 | [3] 0.164 | [4] 0.077 | [5] -0.042 | [6] -0.025 | [7] 0.006 | [8] -0.025 | [9] -0.019 | IRAK-1-4 Inhibitor I 0.015 | ibrutinib 0.127 | [10] -0.033 | ralimetinib -0.061 | [11] -0.062 | [12] -0.103 | [13] 0.011 | pinometostat 0.075 | [14] 0.013 | [15] 0.024

ITFG1 (UniProt Q8TB96)
inactive: erlotinib 0.084 | [1] -0.13 | [2] 0.001 | [3] 0.008 | [4] -0.037 | [5] 0 | [6] 0.039 | [7] 0.063 | [8] -0.052 | [9] -0.037 | IRAK-1-4 Inhibitor I 0.04 | ibrutinib 0.147 | [10] -0.017 | ralimetinib -0.006 | [11] -0.015 | [12] -0.02 | [13] 0.06 | pinometostat 0.007 | [14] -0.079 | [15] -0.197

Remaining list, next part.

IMPDH2 (UniProt P12268)
inactive: erlotinib -0.117 | [1] -0.046 | [2] -0.107 | [3] 0.013 | [4] -0.042 | [5] -0.018 | [6] -0.031 | [7] 0.038 | [8] 0.013 | [9] -0.018 | IRAK-1-4 Inhibitor I -0.054 | ibrutinib -0.013 | [10] 0.005 | ralimetinib -0.002 | [11] 0.007 | [12] 0.01 | [13] 0.003 | pinometostat 0.021 | [14] 0.024 | [15] -0.013

IL27RA (UniProt Q6UWB1)
inactive: erlotinib -0.082 | [1] 0.04 | [2] -0.147 | [3] 0.007 | [4] 0.021 | [5] 0.048 | [6] 0.064 | [7] 0.068 | [8] -0.011 | [9] 0.075 | IRAK-1-4 Inhibitor I -0.189 | ibrutinib 0.077 | [10] 0.011 | ralimetinib 0.058 | [11] 0.005 | [12] 0.139 | [13] -0.167 | pinometostat 0.043 | [15] 0.012

IDH2 (UniProt P48735)
inactive: erlotinib -0.01 | [1] 0.042 | [2] 0.11 | [3] 0.045 | [4] 0.013 | [5] -0.119 | [6] 0.031 | [7] -0.004 | [8] 0.01 | [9] 0.019 | IRAK-1-4 Inhibitor I 0.034 | ibrutinib 0.052 | [10] -0.011 | ralimetinib -0.001 | [11] -0.027 | [12] 0.069 | [13] -0.036 | pinometostat -0.028 | [14] -0.074 | [15] 0.005

IPO11 isoform 2 (UniProt Q9UI26)
inactive: erlotinib -0.063 | [1] 0.066 | [2] 0.074 | [3] 0.013 | [4] 0.016 | [5] 0.038 | [6] 0.011 | [7] -0.023 | [8] 0.001 | [9] -0.009 | IRAK-1-4 Inhibitor I 0.011 | ibrutinib -0.014 | [10] 0.039 | ralimetinib -0.016 | [11] -0.095 | [12] 0.018 | [13] -0.039 | pinometostat -0.035 | [15] -0.018

IGBP1 (UniProt P78318)
inactive: erlotinib 0.014 | [1] 0.026 | [2] 0.065 | [3] 0.003 | [4] -0.016 | [5] 0.055 | [6] 0.058 | [7] -0.01 | [8] 0.05 | [9] 0.026 | IRAK-1-4 Inhibitor I 0.028 | ibrutinib -0.051 | [10] 0 | ralimetinib 0.059 | [11] -0.054 | [12] -0.11 | [13] -0.033 | pinometostat -0.029 | [14] -0.02 | [15] -0.031

IRF2BP2 (UniProt Q7Z5L9)
inactive: erlotinib 0.006 | [1] -0.003 | [2] 0.059 | [3] -0.025 | [4] 0.003 | [5] -0.017 | [6] -0.01 | [7] -0.029 | [8] -0.07 | [9] 0.029 | IRAK-1-4 Inhibitor I -0.017 | ibrutinib 0 | [10] -0.028 | ralimetinib -0.012 | [11] -0.026 | [12] 0.06 | [13] 0.049 | pinometostat -0.062 | [14] 0.021 | [15] 0.019

ITGB1 (UniProt P05556)
inactive: erlotinib -0.004 | [1] -0.009 | [2] 0.025 | [3] -0.008 | [4] -0.048 | [5] 0.003 | [6] 0.017 | [7] 0.01 | [8] 0.015 | [9] 0.057 | IRAK-1-4 Inhibitor I 0.039 | ibrutinib 0.011 | [10] 0 | ralimetinib -0.045 | [11] 0.022 | [12] 0.089 | [13] -0.003 | pinometostat -0.01 | [14] 0.006 | [15] -0.053
